PubChem BioAssay AID1259308 | NCATS – 2017

- Screen: 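Knock-downs that increase output of a recombinant reporter protein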 (primary screen)
- System: human HEK293 embryonic kidney cells stably expressing firefly luciferase (HEK-CMV-Luc2-Hygro)
- Knock-down reagent: single siRNA against human genes, 0.8 pmol siRNA per well
- Time to read-out: 72 h
- Detection: 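Luciferase light (ONE-Glo) measured on one replicate plate set and viability (CellTiter-Glo) on the other, scaled to a negative control siRNA, with robust z-scores and luciferase per cell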
- Direction: total luciferase, z-score and total luciferase, % of control: higher = more reporter protein produced; luciferase per cell, z-score: higher = more reporter output per viable cell; viable cells, % of control: higher = more viable cells
- Call rule: 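An siRNA counts as active if its total luciferase robust z-score exceeds 3; genes with two or more such siRNAs out of three were retested with fresh siRNAs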
- Calls: active = raised luciferase; inactive = no rise
Shown is an unselected part of about 59,000 reagents tested. About 1,510 of them (2.6%) were called active. 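Calls use total luciferase alone and ignore viability, so some active siRNAs may act by altering cell number.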 Unmarked entries are inactive. Reagents against one gene are numbered here.

Gene,reagent no.,"total luciferase, z-score","total luciferase, % of control","luciferase per cell, z-score","viable cells, % of control"
ZSCAN26 (GeneID 7741),1,-0.164,78.6,0.922,68.9
ZSCAN26 (GeneID 7741),2,-1.97,42.7,-2.17,84.3
ZSCAN26 (GeneID 7741),3,3.29 (active),147,2.45,86.4
SLC25A43 (GeneID 203427),1,0.464,91.1,0.841,81.6
SLC25A43 (GeneID 203427),2,3.04 (active),142,3.13,69.7
SLC25A43 (GeneID 203427),3,-0.667,68.6,-0.648,90.9
PANK1 (GeneID 53354),1,-0.687,68.2,-1.11,102
PANK1 (GeneID 53354),2,-0.634,69.3,0.0649,76.1
PANK1 (GeneID 53354),3,-1.99,42.3,-1.07,62.7
SPANXA1 (GeneID 30014),1,-0.51,71.7,-0.393,88.9
SPANXA1 (GeneID 30014),2,-1.05,60.9,-0.272,73.1
SPANXA1 (GeneID 30014),3,-0.571,70.5,-0.879,99.3
PCDHA6 (GeneID 56142),1,0.502,91.9,0.247,96.2
PCDHA6 (GeneID 56142),2,-0.098,79.9,-0.61,105
PCDHA6 (GeneID 56142),3,-1.88,44.6,-1.05,65.8
GAA (GeneID 2548),1,0.0598,83.1,0.302,85.7
GAA (GeneID 2548),2,0.56,93,0.945,81
GAA (GeneID 2548),3,-1.98,42.5,-1.67,73.8
SLC1A5 (GeneID 6510),1,-1.53,51.4,-1.62,87.9
SLC1A5 (GeneID 6510),2,-0.676,68.4,-0.0957,78.4
SLC1A5 (GeneID 6510),3,0.677,95.4,0.854,85.1

Ordered by “total luciferase, z-score” (descending): some entries from above.
Gene,reagent no.,"total luciferase, z-score","total luciferase, % of control","luciferase per cell, z-score","viable cells, % of control"
PANK1 (GeneID 53354),2,-0.634,69.3,0.0649,76.1
SLC25A43 (GeneID 203427),3,-0.667,68.6,-0.648,90.9
PANK1 (GeneID 53354),1,-0.687,68.2,-1.11,102
PANK1 (GeneID 53354),3,-1.99,42.3,-1.07,62.7

Further results follow:
Gene,reagent no.,"total luciferase, z-score","total luciferase, % of control","luciferase per cell, z-score","viable cells, % of control"
CCDC158 (GeneID 339965),1,-1.3,55.9,-2.27,114
CCDC158 (GeneID 339965),2,-0.0724,80.4,-0.141,93.3
CCDC158 (GeneID 339965),3,-0.637,69.2,-0.643,91.6
LHX1 (GeneID 3975),1,0.882,99.4,1.01,85.2
LHX1 (GeneID 3975),2,0.715,96.1,0.289,99.5
LHX1 (GeneID 3975),3,-3.24,17.5,-1.56,29.5
SUFU (GeneID 51684),1,-1.27,56.7,-0.968,81.7
SUFU (GeneID 51684),2,-0.974,62.5,-0.299,75.6
SUFU (GeneID 51684),3,-0.834,65.3,-0.768,89.3
POLG (GeneID 5428),1,1.48,111,1.96,74.4
POLG (GeneID 5428),2,-0.0684,80.5,-0.0264,90.6
POLG (GeneID 5428),3,-0.573,70.5,-1.28,110
IFTAP (GeneID 119710),1,-0.391,74.1,-0.589,96.7
IFTAP (GeneID 119710),2,0.915,100,1.86,68.5
IFTAP (GeneID 119710),3,3.65 (active),155,2.02,101
NDUFV1 (GeneID 4723),1,-0.359,74.7,-0.378,92.3
NDUFV1 (GeneID 4723),2,-0.175,78.4,0.524,76.3
NDUFV1 (GeneID 4723),3,0.0276,82.4,-0.431,103
